# Data as given in PubChem BioAssay AID504791 (Drosophila RNAi Screening Center, 2011).
# Aim: 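Genes of the fly required for silencing by miRNA, siRNA or endo-siRNA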 (primary screen)
# Cells: Drosophila S2-derived reporter cells
# Knock-down reagent: long dsRNA against Drosophila genes, about 150-250 ng dsRNA per well (siRNA assay); about 80-120 ng (miRNA assay)
# Time to read-out: about 5 days (siRNA assay); about 4 days (miRNA assay)
# Treatment: copper sulfate induction of reporters: 25 µM (siRNA assay); 200 mM stated (miRNA assay), 1-2 days before reading
# Measured: 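Dual luciferase assay: Renilla to firefly signal ratio in each well, scaled to the mean ratio of its plate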
# Hit rule: 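a well was a first-pass pick when its plate-scaled ratio rose above 1.5 (siRNA assay) or 1.6 (miRNA assay), or dropped below 0.6; a gene counted only if two separate dsRNAs agreed on retest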
# The screen tested about 23,000 reagents; below is an unselected part of those that have a named target and a result. Of all reagents, 199 (0.86%) are marked active. 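Plate-scaled ratios behind the calls are not deposited; printed light signals are raw; many rows marked increased or decreased are still called inactive.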 The numbers tell different reagents against one gene apart. A plus sign joins genes that one reagent is predicted to hit. The record does not give: the direction of the score.
target,reagent,miRNA reporter change,"stable assay Renilla, run 1 (luminescence)","stable assay firefly, run 1 (luminescence)",activity call
CG7203,1,,6371,3.88e5,inactive
Dtwd2 + Obp84a,1,,6987,3.80e5,inactive
piwi (P-element induced wimpy testis),1,,8274,7.72e5,inactive
CG14805,1,,6552,3.73e5,inactive
Cpr64Ac (Cuticular protein 64Ac),1,,6191,3.46e5,inactive
CG11178,1,,8202,5.29e5,inactive
CG2617,1,,6698,3.39e5,inactive
CG14628,1,,5563,3.23e5,inactive
CG32110,1,,5420,4.14e5,inactive
CG17362,1,,7234,4.41e5,inactive
CG5989,1,,8135,4.62e5,inactive
"ScsbetaA (Succinyl-coenzyme A synthetase beta subunit, ADP-forming)",1,,8555,4.39e5,inactive
Prosbeta5R2 (Proteasome beta5 subunit-related 2),1,,5539,3.28e5,inactive
CG8003,1,,7814,5.00e5,inactive
Nurf-38 (Nucleosome remodeling factor - 38kD),1,,6012,4.47e5,inactive
CG10834,1,,8076,5.37e5,inactive
swaPsi (swallow pseudogene),1,,8281,4.44e5,inactive
CG32645,1,,5614,3.63e5,inactive
CG32645,2,,5627,4.04e5,inactive
Ance (Angiotensin converting enzyme),1,,14280,9.66e5,inactive
eca (eclair),1,,12034,8.31e5,inactive
CG16865,1,,8589,4.45e5,inactive
CG17778,1,,7662,6.63e5,inactive
CG10164,1,,4526,3.83e5,inactive
CG11384,1,,7467,3.67e5,inactive
L (Lobe),1,,5574,3.98e5,inactive
L (Lobe),2,,6591,2.98e5,inactive
CtsL3 (Cathepsin L3),1,,8195,3.77e5,inactive
CG30375,1,,5916,3.10e5,inactive
"ATPsynD (ATP synthase, subunit D)",1,,7711,3.88e5,inactive
PIG-N (Phosphatidylinositol glycan anchor biosynthesis class N),1,,6730,4.62e5,inactive
vig2,1,,8350,3.72e5,inactive
CG4951,1,,7711,3.61e5,inactive
sax (saxophone),1,,8002,5.33e5,inactive
Tango4 (Transport and Golgi organization 4),1,,7444,3.84e5,inactive
CG14017,1,,7507,5.42e5,inactive
twz (tiwaz),1,,8110,4.76e5,inactive
CG34049,1,,4027,4.20e5,inactive
Pdfr (Pigment-dispersing factor receptor),1,,5502,3.21e5,inactive
CG12439,1,,8086,4.09e5,inactive
Cyp4aa1 (Cytochrome P450 4aa1),1,,7460,4.07e5,inactive
gammaTub37C (gamma-Tubulin at 37C),1,,16259,1.39e6,inactive
Cad96Cb (Cadherin 96Cb),1,,6527,3.06e5,inactive
Cad96Cb (Cadherin 96Cb),2,,7000,3.64e5,inactive
clos (closca),1,,6615,4.00e5,inactive
clos (closca),2,,5904,3.89e5,inactive
clos (closca),3,,6383,3.10e5,inactive
clos (closca),4,,9780,7.34e5,inactive
clos (closca),5,,4151,3.62e5,inactive
Uxt (Uxt prefoldin-like subunit),1,,6755,4.03e5,inactive
PPYR1 (Protein phosphatase Y regulator 1),1,,6382,5.96e5,inactive
Taf7 (TBP-associated factor 7),1,,5330,3.80e5,inactive
TwdlU (TweedleU),1,,8695,6.01e5,inactive
CG14500,1,,7136,4.84e5,inactive
CG10177,1,,6514,2.70e5,inactive
Dph2 (Diphthamide biosynthesis 2),1,,7252,4.20e5,inactive
CG14543,1,reporter ratio raised past the hit cutoff,9738,4.81e5,inactive
garz (gartenzwerg),1,,4411,2.63e5,inactive
TRAM,1,,5768,3.00e5,inactive
TRAM,2,,6398,3.76e5,inactive
Pal2 (Peptidyl-alpha-hydroxyglycine-alpha-amidating lyase 2),1,,6864,3.96e5,inactive
acj6 (abnormal chemosensory jump 6),1,,8722,6.98e5,inactive
mAcon1 (Mitochondrial aconitase 1),1,,8086,4.97e5,inactive
CG32106,1,,4512,3.09e5,inactive
CG13392,1,,7347,3.16e5,inactive
Dph4 (Diphthamide biosynthesis 4),1,,6883,4.54e5,inactive
Loxl2 (Lysyl oxidase-like 2),1,,1.28e5,4.04e5,inactive
CG12320,1,,8570,4.64e5,inactive
scpr-B (SCP-containing protein B),1,,9464,6.28e5,inactive
CG7963,1,,6052,3.80e5,inactive
CG5440,1,,7671,4.83e5,inactive
CG5708,1,,7538,3.59e5,inactive
CG3610,1,,6800,3.44e5,inactive
Rpn13 (Regulatory particle non-ATPase 13),1,,4123,1.85e5,inactive
CG11791,1,,9539,3.73e5,inactive
S-Lap5 (Sperm-Leucylaminopeptidase 5),1,,6179,3.00e5,inactive
CG15333,1,,5594,2.87e5,inactive
CG15333,2,,5526,3.06e5,inactive
CG34348,1,,5892,4.80e5,inactive
CG34348,2,,6726,4.67e5,inactive
CG5757,1,,9510,3.11e5,inactive
mi (minus),1,,4.05e5,3.34e5,inactive
mi (minus),2,reporter ratio raised past the hit cutoff,,,inactive
spidey,1,,5391,3.58e5,inactive
CG13694,1,,7406,4.39e5,inactive
GstE5 (Glutathione S transferase E5),1,,4952,2.38e5,inactive
CG33116,1,reporter ratio lowered past the hit cutoff,50565,1.52e6,inactive
C1GalTA (Core 1 Galactosyltransferase A),1,,6886,5.87e5,inactive
CG9588,1,,7351,3.39e5,inactive
DCP1 (Decapping protein 1),1,,13839,1.83e6,inactive
Sec6 (Secretory 6),1,,12680,4.14e5,inactive
CG13081,1,,6958,5.08e5,inactive
eIF3m (eukaryotic translation initiation factor 3 subunit m),1,,6886,3.85e5,inactive
PIG-G (Phosphatidylinositol glycan anchor biosynthesis class G),1,,13105,2.01e6,inactive
pan (pangolin),1,,9134,4.86e5,inactive
pan (pangolin),2,,4091,4.10e5,inactive
cpa (capping protein alpha),1,,1.16e5,5.15e5,inactive
CG6262,1,,4587,1.84e5,inactive
CG6262,2,,3155,3.34e5,inactive
CG15011,1,,8438,3.34e5,inactive
Sam-S (S-adenosylmethionine Synthetase),1,,11226,7.76e5,inactive
sxe2 (sex-specific enzyme 2),1,,8377,2.94e5,inactive
Cep89 (Centrosomal protein 89kDa),1,,5931,3.97e5,inactive
HGTX,1,,5699,4.00e5,inactive
HGTX,2,,7364,3.10e5,inactive
CG6761,1,,8677,4.02e5,inactive

12 entries from above, arranged by “stable assay Renilla, run 1 (luminescence)”, descending:
target,reagent,miRNA reporter change,"stable assay Renilla, run 1 (luminescence)","stable assay firefly, run 1 (luminescence)",activity call
clos (closca),4,,9780,7.34e5,inactive
CG14543,1,reporter ratio raised past the hit cutoff,9738,4.81e5,inactive
TwdlU (TweedleU),1,,8695,6.01e5,inactive
Dph2 (Diphthamide biosynthesis 2),1,,7252,4.20e5,inactive
CG14500,1,,7136,4.84e5,inactive
Uxt (Uxt prefoldin-like subunit),1,,6755,4.03e5,inactive
CG10177,1,,6514,2.70e5,inactive
clos (closca),3,,6383,3.10e5,inactive
PPYR1 (Protein phosphatase Y regulator 1),1,,6382,5.96e5,inactive
clos (closca),2,,5904,3.89e5,inactive
Taf7 (TBP-associated factor 7),1,,5330,3.80e5,inactive
clos (closca),5,,4151,3.62e5,inactive
